According to PubChem BioAssay AID493244 (The Scripps Research Institute Molecular Screening Center, 2011):
The entries are a selection whose mix differs from that of the whole data set. Calls of active or inactive are those of the source.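 How the source made its calls: active means inhibition above the mean inhibition of all tested compounds plus 3 SD (cut at about 17% in these data); inactive means the rest.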

The compounds below were run against Troponin I, cardiac muscle (Homo sapiens) + Troponin T, cardiac muscle (Homo sapiens) + Troponin C, slow skeletal and cardiac muscles (Homo sapiens) (UniProt P19429+P45379+P63316) (assay: cardiac RTF calcium sensitivity inhibitors, primary screen, biochemical, IANBD-TnC fluorescence, EC70 calcium (AID 493244;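 further: assay run at fixed EC70 calcium of 1.6 mM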)). Conditions: IANBD-labeled cardiac RTF, Ca2+ fluorescence; at 7.15 µM; hits give high values.

Question: Which inhibition does the source give for CN1[C@@H]2CC[C@H]1CC(OC(=O)C(O)c1ccccc1)C2 (stereo partly specified) here?
Answer: active: 17%
